In patent US4004008A, “O-Tertiary amino-alkyl-N-benzoyl tyrosil amides” (priority 1974, dated 1977):

Experiments:
[1] = tested on: ileum of a cavy (BaCl2 spasm); assay: Antispastic activity in vitro, Magnus method, cavy ileum stimulated with BaCl2; assay type: cell-based; details: therapeutic index, in vitro activity index (column 4) x DL50
Procedure: C. The method in vitro is that of Magnus, with the ileum of the cavy, and is in common use for all evaluations. It consists of extracting the ileum from the cavy and placing it in a receptacle which contains nutritive liquid, suitably oxygenated, and registering the movements of the organ which remains alive for several hours if maintained at a temperature of 37°. According to the traditional method followed by us, BaCl2 is put into the bath as a spasmisant: the reaction is a violent contraction of the organ. This contraction can be prevented by adding beforehand pharmaceuticals which inhibit spasms, and in this case our compounds.
The values recorded are expressed as relation between papaverine and the ED50 of our compounds. (As is known, the ED50 is the dose which results in a 50% reduction in spastic contraction).
E. I.T.2 is the therapeutic index under the profile of the antispastic activity in vitro and is given by the product between the in vitro antispastic activity index (column 4) and the corresponding DL50 (column 2).

[2] = tested on: intestinal transit of the charcoal; assay: Vegetable carbon (charcoal) intestinal transit test in vivo; details: therapeutic index, DL50 / charcoal ED50, rat i.v.
Procedure: B. The vegetable carbon method in vivo (charcoal method) which consists of administering by oral means to rats, which have fasted for 24 hours, 0.3ml/per rate of a mixture consisting of: 10g of charcoal and 5 g of gum arabic suspended in a volume of 100 cc of H2 O as well as at the same time the substance being studied, accordingly as desired, generally i.v., s.c., oral. After two hours the animals are killed and those are taken to be negative in which the charcoal has reached the first portion of the colon and the others positive, in the sense that the substance administered has slowed down the intestinal transit of the charcoal.
In effect the animals treated with a physiological solution (checks) are all negative after two hours.
D. I.T.1 is the therapeutic index under the profile of the antispastic activity in vivo, and it is obtained by recording the DL50 (column 2) with the ED50 of the charcoal test (column 3).

Compound | I.T.2: DL50 CR x ED50 pap./ED50 CR [1] | I.T.1: DL50/ED50 in vivo [2]
CCCN(CCC)C(=O)C(Cc1ccc(OCCN(C)C)cc1)NC(=O)c1ccccc1 (racemic) [CR 592, O-(2dimethylamino-ethyl)-N-benzol-DL-Tyrosil-di-n-propilamide] | 14.0 | 1.2
CCCN(CCC)C(=O)C(Cc1ccc(OCCN(CC)CC)cc1)NC(=O)c1ccccc1 (racemic) [CR 605, O-(2-diethylamino-ethyl)-N-benzoyl-DL-tyrosil-di-n-propylamide] | 42.5 | 3.2
CCCN(CCC)C(=O)C(Cc1ccc(OCCCN(C)C)cc1)NC(=O)c1ccccc1 (racemic) [CR 607, O-(3-dimethylamino-propyl)-N-benzoyl-DL-tyrosil-di-n-propylamide] | 13.3 | 1.2
CCNC(=O)C(Cc1ccc(OCCN(C)C)cc1)NC(=O)c1ccccc1 (racemic) [CR 608, O-(2-dimethylamino-ethyl)-N-benzoyl-DL-tyrosil-ethylamide] | – | 1.5
CCCN(CCC)C(=O)C(Cc1ccc(OCCCN2CCN(CCO)CC2)cc1)NC(=O)c1ccccc1 (racemic) [CR 609, O-[3-(N"-hydroxyethyl-piperazine)-N'-propyl]-N-benzoyl-DL-tyrosil-di-n-propylamide] | 94.0 | 2.7
CN(C)CCOc1ccc(CC(NC(=O)c2ccccc2)C(=O)N2CCOCC2)cc1 (racemic) [CR 611, O-(2-dimetylamino-ethyl)-N-benzoyl-DL-tyrosil-morpholilamide] | – | 1.8
CCN(CC)CCOc1ccc(CC(NC(=O)c2ccccc2)C(=O)N2CCCC2)cc1 (racemic) [CR 614, O-(2-diethylamino-ethyl)-N-benzoyl-DL-tyrosil-pyrrolidilamide] | – | 1.1
CCCN(CCC)C(=O)C(Cc1ccc(OCCN(C)C)cc1)NC(=O)c1ccc(C)cc1 (racemic) [CR 615, O-(2-dimethylamino-ethyl)-N-toluoyl-DL-tyrosil-di-n-propylamide] | 33.2 | –
CN(C)CCOc1ccc(CC(NC(=O)c2ccccc2)C(=O)NCc2ccccc2)cc1 (racemic) [CR 616, O-(2-dimethylamino-ethyl)-N-benzoyl-DL-tyrosil-benzylamide] | 60.0 | –
CCCN(CCC)C(=O)C(Cc1ccc(OCCCN2CCN(Cc3ccccc3)CC2)cc1)NC(=O)c1ccccc1 (racemic) [CR 619, O-[3-(N"-benzylpiperazine)-N'-propyl]-N-benzoyl-DL-tyrosil-di-n-propylamide] | – | 1.6
CCCN(CCC)C(=O)C(Cc1ccc(OCCN(C)C)cc1)NC(=O)c1ccc([N+](=O)[O-])cc1 (racemic) [CR 620, O-(2-dimethylamino-ethyl)-N-(p-nitro-benzoyl)DL-tyrosil-di-n-propylamide] | 41.8 | –
CCCN(CCC)C(=O)C(Cc1ccc(OCCN(C(C)C)C(C)C)cc1)NC(=O)c1ccccc1 (racemic) [CR 624, O-(2-di-isopropylamino-ethyl)-N-benzoyl-DL-tyrosil-di-n-propylamide] | 27.5 | –
CCCN(CCC)C(=O)C(Cc1ccc(OCCN2CCCC2)cc1)NC(=O)c1ccccc1 (racemic) [CR 625, O-(2-pyrrolidil-N'-ethyl)-N-benzoyl-DL-tyrosil-di-n-propylamide] | 16.9 | 1.5
CCCN(CCC)C(=O)C(Cc1ccc(OCCN2CCCCC2)cc1)NC(=O)c1ccccc1 (racemic) [CR 630, O-(2-piperidil -N'-ethyl)-N-benzoyl-DL-tyrosil-di-n-propylamide] | – | 0.9
CCCN(CCC)C(=O)C(Cc1ccc(OCCN(CC)CC)cc1)NC(=O)c1ccc(Br)cc1 (racemic) [CR 631, O-(2-diethylamino-ethyl)-N-(p-bromobenzoyl)-DL-tyrosil-din-propylamide] | 73.1 | 1.5
CCCN(CCC)C(=O)C(Cc1ccc(OCCN(CC)CC)cc1)NC(=O)c1ccc(C)c(C)c1 (racemic) [CR 632, O-(2-diethylamino-ethyl)-N-(3,4-di-methyl-benzoyl)-DL-tyrosil-di-n-propylamide] | 15.2 | 1.4

Compound | I.T.2: DL50 CR x ED50 pap./ED50 CR [1] | I.T.1: DL50/ED50 in vivo [2]
CCCN(CCC)C(=O)C(Cc1ccc(OCCN(CC)CC)cc1)NC(=O)c1ccc(C(F)(F)F)cc1 (racemic) [CR 635, O-(2-diethylamino-ethyl)-N-[p-(trifluoro-methyl)-benzoyl]-DL-tyrosil-di-n-p ropylamide] | 36.8 | 1.5
CCCN(CCC)C(=O)C(Cc1ccc(OCCN(CC)CC)cc1)NC(=O)c1ccc(OC)cc1 (racemic) [CR 644, O-(2-diethylamino-ethyl)-N-(p-metoxy-benzoyl)-DL-tyrosil-di-n-propylamide] | 25.3 | 2.8
CCCCNC(=O)C(Cc1ccc(OCCN2CCCC2)cc1)NC(=O)c1ccccc1 (racemic) [CR 648, O-(2-pyrrolidil-N'-ethyl)-N-benzoyl-DL-tyrosil-n-butylamide] | 5.7 | 3.3
CCCN(CCC)C(=O)C(Cc1ccc(OCCN2CCCC2)cc1)NC(=O)c1ccc(C)cc1 (racemic) [CR 650, O-(2-pyrrolidil-N'-ethyl)-N-toluoyl-DL-tyrosil-di-n-propylamide] | 20.5 | 0.95
CCCCNC(=O)C(Cc1ccc(OCCN2CCCC2)cc1)NC(=O)c1ccc(C)cc1 (racemic) [CR 651, O-(2-pyrrolidil-N'-ethyl)-N-toluoyl-DL-tyrosil-n-butylamide] | 55.0 | 2.1
CCCN(CCC)C(=O)C(Cc1ccc(OC(C)C(C)CN(CC)CC)cc1)NC(=O)c1ccccc1 (racemic) [CR 700, O-(3-diethylamino-1,2-dimethyl-propyl)-N-benzoyl-DL-tyrosil-di-n-propylamide] | – | 0.95
CCCCNC(=O)C(Cc1ccc(OCCCN2CCN(C)CC2)cc1)NC(=O)c1ccccc1 (racemic) [CR 702, O-[3-(N"-methyl-piperazine)-N'-propyl]-N-benzoyl-DL-tyrosil-n-butylamide] | 9.0 | 1.3
CCCCNC(=O)C(Cc1ccc(OCCCN2CCN(C)CC2)cc1)NC(=O)c1ccc(Cl)cc1 (racemic) [CR 705, O-[3-(N"-methyl-piperazine)-N'-propyl]-N-(p-chloro-benzoyl)-DL-tyrosil-n-butylamide] | 126 | 2.1
CCNC(=O)C(Cc1ccc(OCCN(C(C)C)C(C)C)cc1)NC(=O)c1ccccc1 (racemic) [CR 711, O-(2-diisopropylamino-ethyl)-N-benzoyl-DL-tyrosil-ethylamide] | 34.4 | –
CCNC(=O)C(Cc1ccc(OCCCN2CCN(C)CC2)cc1)NC(=O)c1ccc(Cl)cc1 (racemic) [CR 714, O-[3-(N"-methyl-piperazine)-N'-propyl]-N-(p-chloro-benzoyl)-DL-tyrosil-ethylamide] | 34.4 | –
CCN(CC)CCOc1ccc(CC(NC(=O)c2ccccc2)C(N)=O)cc1 (racemic) [CR 740, O-(2-dietylamino-ethyl)-N-benzoyl-DL-tyrosil-amide] | 36.4 | –
CCCN(CCC)C(=O)C(Cc1ccc(OCCCCN(CC)CC)cc1)NC(=O)c1ccccc1 (racemic) [CR 829, O-(4-diethylamino-butyl)-N-benzoyl-DL-tyrosil-di-n-propylamide] | – | 1.3
CN(C)CCOc1ccc(C[C@H](NC(=O)OCc2ccccc2)C(=O)N2CCOCC2)cc1 [CR 606, O-(2-dimethylamino-ethyl)-N-carbobenzoxy-L-tyrosil-morpholylamide] | 24.3 | –
COc1ccc(Cc2nccc3cc(OC)c(OC)cc23)cc1OC [Papaverine, papaverine, reference compound] | 27.2 | –
O-(2-diisopropylamino-ethyl)-N-toluoyl-DL-tyrosil-n-butylamide [CR 709] | – | 1.1
